For the assay, the target named is T1, Insulin-like growth factor-binding protein 7 (human IGFBP7) (human) (UniProt Q16270).
T1 sequence: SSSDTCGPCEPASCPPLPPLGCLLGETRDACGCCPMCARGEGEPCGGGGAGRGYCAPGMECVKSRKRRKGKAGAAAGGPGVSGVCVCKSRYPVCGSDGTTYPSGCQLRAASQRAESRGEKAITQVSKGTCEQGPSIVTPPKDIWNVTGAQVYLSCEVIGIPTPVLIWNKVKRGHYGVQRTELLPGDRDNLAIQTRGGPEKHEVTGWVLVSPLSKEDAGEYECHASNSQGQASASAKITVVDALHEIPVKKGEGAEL
Put plainly: epitope mapping.

Results are given in words; binding and its absence hold for the method and conditions named. Some results given as binding are weak or reduced against the parent protein; the word gives no strength.

B1: 1D6 (antibody, mouse IgG1, V domains shown)
VH: QIQLVQSGPELKKPGETVKISCKASGYTFKKYGMNWVKQAPGKGLKWMGWINTYTGEPIYADDFKGRFAFSLETSASTAYLQISNLKNEDTATYFCAREEYGPFYAMDYWGQGTSVTVSS
VL: QIVLTQSPAIMSASPGEKVTMTCSASSSVSYMHWYQQKSGTSPKRWIYDTSELASGVPARFSGSGSGTSYSLTISSMEAEDAATYYCQQWSSSPFTFGSGTKLEIKR
For the molecule B1, the binding result is reported as “binds”.
